Certain results were filed several times, with different values. The other results are left out here. The source may hold further records. Results that share an entry do not match, cause unknown; some may be repeats, others may stem from another dose, organism or construct than stated.
Target: Human Constitutive (Hu C-20S) β5 Active Subunit (Homo sapiens, UniProt P28074)
Experiment: IC50 determination, human constitutive 20S proteasome β5c (suc-LLVY-AMC hydrolysis)
Details: read-out: Hu c-20S IC50; Table 2; several values in a cell are repeat determinations
Protocol: Experiments to determine IC50 values against β5i and β5c for compounds were carried out in 96-well plates. In brief, 1 μL of compound in a 3× series dilution in DMSO at concentration ranging from 100 μM-0.0017 μM were spotted to the bottom of a black 96-well plate with solid bottom. 100 μL of reaction buffer (20 mM THEPES, 0.5 mM EDTA, pH7.5, 0.1% BSA) containing enzyme (final concentration was 0.2 nM for c-20S, and 0.4 nM for i-20S) and substrate (25 μM for suc-LLVY-AMC for β5c and 15 μM for Ac-ANW-AMC) were dispensed into each well, and the plate was then spun at 1000× rpm for 1 minute and then shaked on a shaker for 1 minute. Time course of the hydrolysis of each well was followed by recording the fluorescence of product AMC (Ex 360 nm and Em 460 nm) on aSpectraMax M5 plate reader for 1.5-2 hours. Initial reaction velocity of each well was fit to adose-dependent inhibition equation using PRISM to determine the IC50. IC50S were determined only for β5i and β5c (Table 2). SDS was used as activator for both enzymes at concentration 0.02%.

**Q.** How did the IC50 turn out when `CC(C)CCC(=O)N[C@@H](CC(=O)N1CCC[C@@H]1c1ccccc1)C(=O)N[C@@H](C)c1nc2ccccc2[nH]1` was run?
**A.** The IC50 was 16.8, 13.7, 53.1, 9.3, 10.6, 50 µM.

**Q.** Which IC50 does the source give for `C[C@H](NC(=O)[C@H](CC(=O)N1CCCC1)NC(=O)CCc1ccccc1)C(=O)NCc1cccc2cn[nH]c12` [CF-503390] here?
**A.** Its IC50 is 5.5 µM and 2.72 µM.

**Q.** Which IC50 does the source give for `CC(C)CCC(=O)N[C@@H](CC(=O)N1CCCC[C@@H]1C)C(=O)N[C@@H](C)c1ncc(-c2ccc(F)cc2F)[nH]1` here?
**A.** Its IC50 is 6.36, 9.66, 10.7, 8.73 µM.

**Q.** With `CC[C@H]1CCCCN1C(=O)C[C@H](NC(=O)C1CC1C(C)C)C(=O)N[C@@H](C)c1nc2c(F)cccc2[nH]1` (stereo partly drawn) [CEN-10, N—((S)-4-((S)-2-Ethylpiperidin-1-yl)-1-(((S)-1-(4-fluoro-1H-benzo[d]imidazol-2-yl)ethyl)amino)-1,4-dioxobutan-2-yl)-2-isopropylcyclopropane-1-carboxamide] as the molecule, how does the IC50 read?
**A.** The IC50 was 2.3 µM and 1.72 µM.

**Q.** With `CC(C)CCC(=O)N[C@@H](CC(=O)N1CCC[C@@H]1c1ccccc1)C(=O)N[C@H](C)c1nc2ccccc2[nH]1` [CEN-49, N—((S)-1-(((R)-1-(1H-Benzo[d]imidazol-2-yl)ethyl)amino)-1,4-dioxo-4-((R)-2-phenylpyrrolidin-1-yl)butan-2-yl)-4-methylpentanamide] as the molecule, how does the IC50 read?
**A.** Its IC50 is 8.96 µM and 50 µM.

— US11203613B2, “Peptidomimetic proteasome inhibitors” (CORNELL UNIVERSITY, priority 2017, dated 2021)
